These are literature values, as cited in patent US20090012052A1, “METHOD FOR TREATING ER+ BREAST CANCER” (Ore Pharmaceuticals Inc., priority 2006, published 2009).

The IC50 is the concentration needed to halve the response being measured.

The data set relates to T47D. The note with it: read-out: IC50 for antiproliferative effect; estrogen-stimulated T47D cells; cited from earlier work.

As for `CC/C(=C(\c1ccccc1)c1ccc(OCCN(C)C)cc1)c1ccccc1` [tamoxifen], the IC50 was 11.8 nM.
